In PMC6398486:
These are yes or no findings as the source states them, for the method shown. Binding seen in cells or lysates may run through a third protein. Some results given as binding are weak or reduced against the parent protein; the word gives no strength.

The chains behind the UniProt entries cited, without tags or fusion partners.
UniProt P51149: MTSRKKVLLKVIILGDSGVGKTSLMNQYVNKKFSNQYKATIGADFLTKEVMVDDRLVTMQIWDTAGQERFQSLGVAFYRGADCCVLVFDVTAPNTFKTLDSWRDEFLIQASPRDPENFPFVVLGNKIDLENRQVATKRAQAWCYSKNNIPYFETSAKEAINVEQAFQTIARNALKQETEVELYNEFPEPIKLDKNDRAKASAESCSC
UniProt Q96RL7: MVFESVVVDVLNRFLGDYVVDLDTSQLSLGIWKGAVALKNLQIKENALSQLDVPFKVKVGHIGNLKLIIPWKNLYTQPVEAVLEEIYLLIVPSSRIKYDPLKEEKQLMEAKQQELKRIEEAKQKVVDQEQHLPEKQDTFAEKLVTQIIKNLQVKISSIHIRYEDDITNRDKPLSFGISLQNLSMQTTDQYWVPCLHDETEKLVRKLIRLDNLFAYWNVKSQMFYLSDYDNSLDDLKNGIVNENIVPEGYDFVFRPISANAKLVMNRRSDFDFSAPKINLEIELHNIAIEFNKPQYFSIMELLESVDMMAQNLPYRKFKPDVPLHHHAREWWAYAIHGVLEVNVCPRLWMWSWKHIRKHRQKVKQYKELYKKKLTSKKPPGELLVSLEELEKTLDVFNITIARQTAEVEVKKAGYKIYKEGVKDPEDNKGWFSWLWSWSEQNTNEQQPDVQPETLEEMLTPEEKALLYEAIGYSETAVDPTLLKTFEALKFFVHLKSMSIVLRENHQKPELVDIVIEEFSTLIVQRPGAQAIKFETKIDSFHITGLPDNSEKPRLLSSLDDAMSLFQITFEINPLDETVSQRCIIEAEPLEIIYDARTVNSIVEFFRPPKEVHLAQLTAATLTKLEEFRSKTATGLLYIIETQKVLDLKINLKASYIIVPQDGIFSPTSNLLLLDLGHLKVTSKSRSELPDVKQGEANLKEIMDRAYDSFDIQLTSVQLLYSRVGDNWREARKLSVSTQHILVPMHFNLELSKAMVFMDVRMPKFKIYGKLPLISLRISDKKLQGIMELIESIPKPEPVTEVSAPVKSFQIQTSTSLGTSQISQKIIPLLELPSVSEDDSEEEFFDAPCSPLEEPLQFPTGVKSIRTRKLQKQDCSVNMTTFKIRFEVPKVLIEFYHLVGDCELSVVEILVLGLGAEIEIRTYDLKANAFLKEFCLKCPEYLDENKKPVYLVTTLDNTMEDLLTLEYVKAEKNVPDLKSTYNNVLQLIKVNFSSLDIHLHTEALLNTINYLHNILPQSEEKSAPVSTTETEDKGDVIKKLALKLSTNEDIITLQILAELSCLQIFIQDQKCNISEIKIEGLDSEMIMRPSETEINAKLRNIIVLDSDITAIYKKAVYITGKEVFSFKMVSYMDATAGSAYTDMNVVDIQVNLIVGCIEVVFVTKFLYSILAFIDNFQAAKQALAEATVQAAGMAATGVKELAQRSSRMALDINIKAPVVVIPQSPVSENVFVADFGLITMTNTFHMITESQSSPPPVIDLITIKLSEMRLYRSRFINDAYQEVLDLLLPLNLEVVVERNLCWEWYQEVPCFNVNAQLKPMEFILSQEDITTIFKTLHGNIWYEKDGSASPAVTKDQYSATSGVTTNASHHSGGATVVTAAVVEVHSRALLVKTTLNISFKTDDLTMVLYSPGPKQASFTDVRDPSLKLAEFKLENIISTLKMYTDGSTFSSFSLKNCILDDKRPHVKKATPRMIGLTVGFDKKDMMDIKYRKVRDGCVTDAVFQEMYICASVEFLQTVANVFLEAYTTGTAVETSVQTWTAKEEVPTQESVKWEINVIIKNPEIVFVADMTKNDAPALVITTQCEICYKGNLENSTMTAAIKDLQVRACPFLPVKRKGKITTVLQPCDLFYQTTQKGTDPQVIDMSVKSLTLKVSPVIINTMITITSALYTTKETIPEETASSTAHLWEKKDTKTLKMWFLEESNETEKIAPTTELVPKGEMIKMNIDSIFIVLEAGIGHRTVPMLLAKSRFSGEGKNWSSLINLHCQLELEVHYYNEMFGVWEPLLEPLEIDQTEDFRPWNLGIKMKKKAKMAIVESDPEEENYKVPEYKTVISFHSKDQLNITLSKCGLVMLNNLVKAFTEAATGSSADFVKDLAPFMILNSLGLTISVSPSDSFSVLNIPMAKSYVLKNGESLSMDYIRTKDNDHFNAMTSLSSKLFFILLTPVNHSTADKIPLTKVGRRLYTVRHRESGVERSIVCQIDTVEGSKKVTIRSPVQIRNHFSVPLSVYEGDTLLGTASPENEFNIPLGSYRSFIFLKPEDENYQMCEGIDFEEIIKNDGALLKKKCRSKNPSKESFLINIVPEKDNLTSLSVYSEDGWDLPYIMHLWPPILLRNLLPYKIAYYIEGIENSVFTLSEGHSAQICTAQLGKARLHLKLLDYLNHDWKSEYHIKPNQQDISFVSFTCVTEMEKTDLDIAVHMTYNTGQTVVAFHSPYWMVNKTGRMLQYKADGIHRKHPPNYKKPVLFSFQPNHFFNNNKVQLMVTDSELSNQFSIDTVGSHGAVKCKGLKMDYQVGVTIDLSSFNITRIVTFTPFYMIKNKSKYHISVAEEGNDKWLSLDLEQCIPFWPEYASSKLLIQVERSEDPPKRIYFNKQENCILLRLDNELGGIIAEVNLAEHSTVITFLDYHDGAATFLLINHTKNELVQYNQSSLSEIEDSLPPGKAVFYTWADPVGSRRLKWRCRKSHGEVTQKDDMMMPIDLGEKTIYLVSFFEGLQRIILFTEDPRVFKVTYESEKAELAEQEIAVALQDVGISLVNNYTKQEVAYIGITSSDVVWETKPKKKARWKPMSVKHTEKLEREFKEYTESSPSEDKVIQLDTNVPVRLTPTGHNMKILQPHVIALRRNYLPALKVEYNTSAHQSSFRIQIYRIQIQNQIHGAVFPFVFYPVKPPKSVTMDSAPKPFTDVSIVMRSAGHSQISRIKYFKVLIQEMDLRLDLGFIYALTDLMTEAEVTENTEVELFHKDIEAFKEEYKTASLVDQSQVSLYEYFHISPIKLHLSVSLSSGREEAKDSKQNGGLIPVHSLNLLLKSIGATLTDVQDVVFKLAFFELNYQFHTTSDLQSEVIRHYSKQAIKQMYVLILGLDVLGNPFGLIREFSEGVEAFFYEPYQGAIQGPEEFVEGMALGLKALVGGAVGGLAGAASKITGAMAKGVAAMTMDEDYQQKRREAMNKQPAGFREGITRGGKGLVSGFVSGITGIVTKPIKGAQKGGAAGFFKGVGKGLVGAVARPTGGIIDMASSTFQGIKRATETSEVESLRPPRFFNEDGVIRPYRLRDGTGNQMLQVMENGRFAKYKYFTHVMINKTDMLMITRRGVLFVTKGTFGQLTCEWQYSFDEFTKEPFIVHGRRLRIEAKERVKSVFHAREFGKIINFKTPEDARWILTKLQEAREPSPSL

Molecular target: wild-type GFP-RAB7A (human) (UniProt P51149)
Assay: co-IP; GFP-Trap A beads on lysates of HeLa cells transiently transfected with GFP-RAB7A forms; western blot with anti-VPS13A, anti-GFP and anti-RILP; 10 mM Tris-HCl pH 7.5, 150 mM NaCl, 4 h at 4°C

VPS13A (from UniProt Q96RL7 1-3174)
binding: binds
